PubChem BioAssay AID1259425, University of Nebraska Medical Center, 2018

Purpose: 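Seek colon cancer weak points whose silencing resembles KSR1 loss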 (primary screen)
Cell system: HCT116 human colon cancer cells
Reagents: siRNA pool against human genes, 50 nM siRNA
Detection: 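After 50 nM siRNA pool, branched-DNA assay measures six marker transcripts per well, minus blank, normalised to the geometric mean of two housekeeping transcripts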
Direction: BNIP3L mRNA: higher = more BNIP3L transcript after knockdown
Shown is a random part of about 14,000 reagents tested. Further read-outs or replicates are left out here. Not stated in the record: the time to read-out.

MINDY3 [SID364003180] → BNIP3L mRNA, set 1 = 0.113
NPFFR2 [SID363995835] → BNIP3L mRNA, set 1 = 0.164
AICDA [SID364001762] → BNIP3L mRNA, set 1 = 0.0909
CD5 [SID363998649] → BNIP3L mRNA, set 1 = 0.106
MYO15A [SID363999973] → BNIP3L mRNA, set 1 = 0.0522
RP2 [SID363997669] → BNIP3L mRNA, set 1 = 0.102
HSF2 [SID363995483] → BNIP3L mRNA, set 1 = 0.467
ETFDH [SID363995435] → BNIP3L mRNA, set 1 = 0.0836
CDCA3 [SID364003588] → BNIP3L mRNA, set 1 = 0.25

Quoted from the entries so far for reference:
CD5 [SID363998649] → BNIP3L mRNA, set 1 = 0.106
MYO15A [SID363999973] → BNIP3L mRNA, set 1 = 0.0522
RP2 [SID363997669] → BNIP3L mRNA, set 1 = 0.102

The listing continues.
GM2A [SID363991736] → BNIP3L mRNA, set 1 = 0.0764
DUSP1 [SID363995399] → BNIP3L mRNA, set 1 = 0.133
EFNA3 [SID363995894] → BNIP3L mRNA, set 1 = 0.0777
AUP1 [SID363998052] → BNIP3L mRNA, set 1 = 0.0916
PLA2G5 [SID363992214] → BNIP3L mRNA, set 1 = 0.0726
MAGEA12 [SID363996277] → BNIP3L mRNA, set 1 = 0.156
HK2 [SID363991525] → BNIP3L mRNA, set 1 = 0.191
S100A14 [SID364001768] → BNIP3L mRNA, set 1 = 0.0833
LRRC49 [SID364000449] → BNIP3L mRNA, set 1 = 0.114
PTCD3 [SID364000668] → BNIP3L mRNA, set 1 = 0.0953
